Source: the supplement of paper PMC12067093, “Discovery and optimisation of a covalent ligand for TRIM25 and its application to targeted protein ubiquitination” (Chemical Science, 2025)
The other results are listed elsewhere or left out.

Protein sequences, listed by entry. Tags and fused reporters are not part of them. Lines headed by an entry give the natural chain unless they say otherwise; changes in a name come on top.
UniProt O43149: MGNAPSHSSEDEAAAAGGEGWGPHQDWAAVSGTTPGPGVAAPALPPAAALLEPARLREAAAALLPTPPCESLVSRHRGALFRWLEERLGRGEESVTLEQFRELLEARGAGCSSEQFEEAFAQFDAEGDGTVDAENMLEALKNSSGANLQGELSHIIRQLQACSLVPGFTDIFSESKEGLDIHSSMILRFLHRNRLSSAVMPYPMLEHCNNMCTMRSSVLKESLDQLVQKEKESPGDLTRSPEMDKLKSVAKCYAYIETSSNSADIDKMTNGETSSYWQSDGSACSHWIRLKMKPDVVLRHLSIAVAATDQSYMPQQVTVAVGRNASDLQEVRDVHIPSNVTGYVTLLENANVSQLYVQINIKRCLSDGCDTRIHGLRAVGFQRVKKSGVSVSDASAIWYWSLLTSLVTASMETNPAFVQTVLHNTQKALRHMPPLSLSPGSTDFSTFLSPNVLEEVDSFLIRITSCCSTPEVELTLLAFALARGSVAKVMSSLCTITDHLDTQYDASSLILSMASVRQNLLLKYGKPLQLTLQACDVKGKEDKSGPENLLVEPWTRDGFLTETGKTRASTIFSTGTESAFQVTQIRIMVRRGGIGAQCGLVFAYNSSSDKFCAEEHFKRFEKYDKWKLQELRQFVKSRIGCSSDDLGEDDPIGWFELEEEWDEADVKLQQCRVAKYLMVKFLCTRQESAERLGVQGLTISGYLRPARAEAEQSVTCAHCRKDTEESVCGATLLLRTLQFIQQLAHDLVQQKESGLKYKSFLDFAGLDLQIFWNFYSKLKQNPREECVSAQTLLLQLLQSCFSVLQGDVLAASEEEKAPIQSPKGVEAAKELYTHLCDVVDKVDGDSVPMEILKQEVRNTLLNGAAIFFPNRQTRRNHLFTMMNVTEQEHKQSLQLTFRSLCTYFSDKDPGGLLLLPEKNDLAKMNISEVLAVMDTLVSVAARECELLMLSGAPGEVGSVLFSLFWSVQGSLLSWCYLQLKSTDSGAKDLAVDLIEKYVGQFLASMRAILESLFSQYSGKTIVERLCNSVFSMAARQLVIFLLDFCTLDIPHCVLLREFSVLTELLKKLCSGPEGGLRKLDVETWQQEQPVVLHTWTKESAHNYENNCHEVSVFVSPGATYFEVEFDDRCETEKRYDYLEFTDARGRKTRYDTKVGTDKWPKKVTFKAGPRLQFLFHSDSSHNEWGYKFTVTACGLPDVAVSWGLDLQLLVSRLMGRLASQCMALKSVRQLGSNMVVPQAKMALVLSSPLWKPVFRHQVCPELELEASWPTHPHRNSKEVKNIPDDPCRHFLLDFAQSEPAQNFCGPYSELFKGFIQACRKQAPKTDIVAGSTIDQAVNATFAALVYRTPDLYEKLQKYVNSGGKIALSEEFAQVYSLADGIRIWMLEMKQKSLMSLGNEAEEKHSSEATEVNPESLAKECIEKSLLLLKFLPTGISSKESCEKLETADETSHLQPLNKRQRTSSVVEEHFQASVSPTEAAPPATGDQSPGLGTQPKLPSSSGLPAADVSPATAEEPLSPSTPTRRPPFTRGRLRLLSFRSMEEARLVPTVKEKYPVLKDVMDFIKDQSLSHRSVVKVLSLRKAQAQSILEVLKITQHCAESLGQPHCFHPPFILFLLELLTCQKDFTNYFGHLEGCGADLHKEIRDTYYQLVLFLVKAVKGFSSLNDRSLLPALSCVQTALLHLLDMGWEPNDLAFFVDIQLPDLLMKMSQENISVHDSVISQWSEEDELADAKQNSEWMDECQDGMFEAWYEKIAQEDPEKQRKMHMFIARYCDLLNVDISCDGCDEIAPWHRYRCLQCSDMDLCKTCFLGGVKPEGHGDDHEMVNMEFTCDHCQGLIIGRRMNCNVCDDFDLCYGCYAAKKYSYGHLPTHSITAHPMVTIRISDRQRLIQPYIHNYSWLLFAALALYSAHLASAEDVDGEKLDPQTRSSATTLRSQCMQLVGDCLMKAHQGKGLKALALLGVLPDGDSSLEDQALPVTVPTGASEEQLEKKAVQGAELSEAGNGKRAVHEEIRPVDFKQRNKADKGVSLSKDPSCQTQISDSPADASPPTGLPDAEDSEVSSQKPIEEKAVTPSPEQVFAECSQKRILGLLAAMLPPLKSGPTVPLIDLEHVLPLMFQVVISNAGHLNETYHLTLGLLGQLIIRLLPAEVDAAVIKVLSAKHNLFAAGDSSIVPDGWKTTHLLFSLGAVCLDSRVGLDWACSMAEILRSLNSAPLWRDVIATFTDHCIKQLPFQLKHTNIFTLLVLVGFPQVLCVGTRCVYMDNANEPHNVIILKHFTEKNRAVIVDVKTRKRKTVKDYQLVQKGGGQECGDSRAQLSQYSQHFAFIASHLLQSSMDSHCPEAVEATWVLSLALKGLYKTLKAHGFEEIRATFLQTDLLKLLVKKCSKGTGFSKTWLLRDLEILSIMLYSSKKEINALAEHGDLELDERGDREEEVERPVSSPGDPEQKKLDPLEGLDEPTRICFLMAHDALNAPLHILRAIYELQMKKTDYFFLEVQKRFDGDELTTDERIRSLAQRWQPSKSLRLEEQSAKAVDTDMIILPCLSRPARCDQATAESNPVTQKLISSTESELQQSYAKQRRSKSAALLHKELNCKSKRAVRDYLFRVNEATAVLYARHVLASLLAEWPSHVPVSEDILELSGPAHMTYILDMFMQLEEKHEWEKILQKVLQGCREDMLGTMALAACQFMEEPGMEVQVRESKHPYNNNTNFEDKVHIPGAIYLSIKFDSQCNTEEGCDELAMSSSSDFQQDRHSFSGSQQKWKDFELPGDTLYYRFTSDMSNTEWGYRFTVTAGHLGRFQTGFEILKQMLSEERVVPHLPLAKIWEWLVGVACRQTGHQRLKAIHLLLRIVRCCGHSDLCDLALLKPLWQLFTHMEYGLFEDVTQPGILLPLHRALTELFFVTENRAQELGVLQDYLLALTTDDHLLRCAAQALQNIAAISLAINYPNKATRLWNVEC
UniProt O95218: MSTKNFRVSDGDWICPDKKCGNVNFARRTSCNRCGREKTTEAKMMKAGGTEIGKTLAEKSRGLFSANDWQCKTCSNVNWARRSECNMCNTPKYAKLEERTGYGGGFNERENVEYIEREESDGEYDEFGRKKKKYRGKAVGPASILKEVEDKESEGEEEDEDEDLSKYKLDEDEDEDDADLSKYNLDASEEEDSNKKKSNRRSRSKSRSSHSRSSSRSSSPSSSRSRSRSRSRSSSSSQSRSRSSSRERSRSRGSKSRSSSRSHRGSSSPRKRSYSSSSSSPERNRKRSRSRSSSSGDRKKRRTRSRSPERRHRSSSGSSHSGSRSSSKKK
UniProt Q9UG63: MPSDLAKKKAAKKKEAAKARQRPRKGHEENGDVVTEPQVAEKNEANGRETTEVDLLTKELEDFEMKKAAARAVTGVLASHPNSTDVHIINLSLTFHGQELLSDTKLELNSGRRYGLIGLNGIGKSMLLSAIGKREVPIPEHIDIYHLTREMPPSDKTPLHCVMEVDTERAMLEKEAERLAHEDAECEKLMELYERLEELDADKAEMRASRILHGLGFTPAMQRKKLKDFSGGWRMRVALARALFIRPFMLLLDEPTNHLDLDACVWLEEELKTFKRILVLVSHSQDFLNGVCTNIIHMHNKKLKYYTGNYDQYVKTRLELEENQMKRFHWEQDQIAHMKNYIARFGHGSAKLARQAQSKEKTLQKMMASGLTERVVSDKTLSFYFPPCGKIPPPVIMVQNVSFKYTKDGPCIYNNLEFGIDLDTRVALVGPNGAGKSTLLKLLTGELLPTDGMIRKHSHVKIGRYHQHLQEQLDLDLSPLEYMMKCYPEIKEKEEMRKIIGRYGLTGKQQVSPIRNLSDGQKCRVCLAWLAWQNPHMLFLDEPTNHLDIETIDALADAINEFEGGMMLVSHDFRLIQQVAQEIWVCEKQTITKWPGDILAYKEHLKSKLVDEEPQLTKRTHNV
UniProt Q15942: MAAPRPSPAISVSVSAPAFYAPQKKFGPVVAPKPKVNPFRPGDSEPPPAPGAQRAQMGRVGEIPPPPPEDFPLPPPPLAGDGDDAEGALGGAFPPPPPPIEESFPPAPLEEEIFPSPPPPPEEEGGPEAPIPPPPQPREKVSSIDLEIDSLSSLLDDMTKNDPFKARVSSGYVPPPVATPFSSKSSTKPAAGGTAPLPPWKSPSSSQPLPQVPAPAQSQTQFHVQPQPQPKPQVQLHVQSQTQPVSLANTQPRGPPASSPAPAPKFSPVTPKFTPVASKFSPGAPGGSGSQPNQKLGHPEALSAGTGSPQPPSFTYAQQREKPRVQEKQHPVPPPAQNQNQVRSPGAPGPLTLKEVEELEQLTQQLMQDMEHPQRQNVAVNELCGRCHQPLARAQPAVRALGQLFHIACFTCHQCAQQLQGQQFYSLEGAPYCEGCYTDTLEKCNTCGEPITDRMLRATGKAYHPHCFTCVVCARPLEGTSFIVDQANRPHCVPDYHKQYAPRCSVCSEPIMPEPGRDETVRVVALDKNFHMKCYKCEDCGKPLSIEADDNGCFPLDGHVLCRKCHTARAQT
UniProt O43264: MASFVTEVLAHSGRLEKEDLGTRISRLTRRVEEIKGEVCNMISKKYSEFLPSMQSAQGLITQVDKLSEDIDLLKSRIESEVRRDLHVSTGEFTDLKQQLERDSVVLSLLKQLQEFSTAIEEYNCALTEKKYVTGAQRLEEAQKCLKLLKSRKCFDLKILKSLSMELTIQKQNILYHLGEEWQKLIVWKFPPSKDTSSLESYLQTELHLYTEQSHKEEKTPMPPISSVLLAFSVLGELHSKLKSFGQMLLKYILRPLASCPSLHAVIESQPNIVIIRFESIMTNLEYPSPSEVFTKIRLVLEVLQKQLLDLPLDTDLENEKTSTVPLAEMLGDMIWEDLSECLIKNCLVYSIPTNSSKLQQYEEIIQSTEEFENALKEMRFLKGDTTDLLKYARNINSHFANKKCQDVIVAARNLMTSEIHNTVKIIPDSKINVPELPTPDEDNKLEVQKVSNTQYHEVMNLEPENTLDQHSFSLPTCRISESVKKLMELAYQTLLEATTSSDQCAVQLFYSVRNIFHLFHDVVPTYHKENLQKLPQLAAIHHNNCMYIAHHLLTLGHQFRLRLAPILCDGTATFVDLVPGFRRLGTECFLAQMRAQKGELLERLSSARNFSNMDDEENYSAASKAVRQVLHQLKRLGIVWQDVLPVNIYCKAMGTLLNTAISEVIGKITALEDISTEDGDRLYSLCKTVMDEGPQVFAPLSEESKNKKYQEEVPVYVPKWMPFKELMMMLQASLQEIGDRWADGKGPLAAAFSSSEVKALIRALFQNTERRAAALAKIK
UniProt P49748: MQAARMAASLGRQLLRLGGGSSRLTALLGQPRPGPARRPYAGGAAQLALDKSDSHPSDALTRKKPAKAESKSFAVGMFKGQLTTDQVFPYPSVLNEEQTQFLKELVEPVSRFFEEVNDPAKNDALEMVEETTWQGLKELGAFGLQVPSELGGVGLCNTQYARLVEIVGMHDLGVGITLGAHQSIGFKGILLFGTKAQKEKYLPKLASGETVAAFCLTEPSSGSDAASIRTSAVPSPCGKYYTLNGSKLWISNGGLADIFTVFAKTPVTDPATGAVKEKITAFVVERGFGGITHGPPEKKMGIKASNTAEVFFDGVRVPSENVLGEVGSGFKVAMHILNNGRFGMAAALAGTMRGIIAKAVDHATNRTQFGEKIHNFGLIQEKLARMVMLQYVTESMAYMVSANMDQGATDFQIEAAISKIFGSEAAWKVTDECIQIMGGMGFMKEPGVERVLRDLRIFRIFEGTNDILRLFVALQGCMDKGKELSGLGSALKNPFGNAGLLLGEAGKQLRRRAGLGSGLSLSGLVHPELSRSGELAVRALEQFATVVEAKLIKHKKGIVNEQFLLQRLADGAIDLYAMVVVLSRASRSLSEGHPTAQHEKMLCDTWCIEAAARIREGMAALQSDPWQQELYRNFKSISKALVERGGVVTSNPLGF
UniProt Q9P1U0, whole entry, looked up: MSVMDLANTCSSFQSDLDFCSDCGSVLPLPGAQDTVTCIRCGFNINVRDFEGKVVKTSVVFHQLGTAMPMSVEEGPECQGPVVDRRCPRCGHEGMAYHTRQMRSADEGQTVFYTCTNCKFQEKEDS
UniProt Q9NRG9: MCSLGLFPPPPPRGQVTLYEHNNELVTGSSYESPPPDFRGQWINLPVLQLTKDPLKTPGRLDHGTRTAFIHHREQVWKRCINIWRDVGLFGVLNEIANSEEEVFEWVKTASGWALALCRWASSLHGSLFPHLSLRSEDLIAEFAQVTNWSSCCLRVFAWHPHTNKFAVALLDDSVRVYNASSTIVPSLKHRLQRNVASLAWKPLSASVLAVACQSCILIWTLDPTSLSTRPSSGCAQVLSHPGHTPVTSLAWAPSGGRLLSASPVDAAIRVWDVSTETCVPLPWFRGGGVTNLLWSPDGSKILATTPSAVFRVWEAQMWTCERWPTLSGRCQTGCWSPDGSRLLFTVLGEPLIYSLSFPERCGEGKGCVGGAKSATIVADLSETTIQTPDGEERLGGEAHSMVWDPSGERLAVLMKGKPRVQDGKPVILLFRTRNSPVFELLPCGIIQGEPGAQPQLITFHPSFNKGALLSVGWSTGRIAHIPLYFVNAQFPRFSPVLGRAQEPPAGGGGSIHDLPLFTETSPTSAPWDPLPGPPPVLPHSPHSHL

Assays:
[1] = compound: CC1Cc2ccccc2N1C(=O)C1CCCN(C1)C(=O)CCl (mixture of isomers) [TRIM25 ligand 11 (diastereomer mixture)]; assay: probe-labelled cysteine peptide fold change vs DMSO (competition) (log2 fold change); higher = less target engagement (more negative = stronger competition); conditions: THP-1, incubation time: 4 h
[2] = compound: Cc1cc(ccc1-c1ccccc1)C(=O)N1CCCN(CC1)C(=O)CCl [compound 10]; assay: as above; conditions: THP-1, incubation time: 4 h

Target | probe-labelled cysteine peptide fold change ([1]; 10 µM) | probe-labelled cysteine peptide fold change ([1]; 50 µM) | probe-labelled cysteine peptide fold change ([2]; 10 µM) | probe-labelled cysteine peptide fold change ([2]; 50 µM)
ACIN1_Q9UKV3_546_GITEECLK (UniProt Q9UKV3) | -0.0875 | -0.141 |  | 
AAK1_Q2M2I8_87_MFVNNEHDLQVCK (UniProt Q2M2I8) | -0.0313 | 0.00107 |  | 
ZZEF1_O43149_2466_ICFLMAHDALNAPLHILR (UniProt O43149) |  |  | 0.0542 | -0.135
ACO2_Q99798_126_VAVPSTIHCDHLIEAQVGGEK (UniProt Q99798) | 0.0308 | -0.109 |  | 
ZRANB2_O95218_31_RTSCNR (UniProt O95218) |  |  | 0.0472 | -0.373
ABCF2_Q9UG63_388_TLSFYFPPCGK (UniProt Q9UG63) | 0.02 | 0.0914 |  | 
ACAT2_Q9BWD1_65_ATVAPEDVSEVIFGHVLAAGCGQNPVR (UniProt Q9BWD1) | -0.0178 | -0.0209 |  | 
ABHD15_Q6UXT9_323_EFEEALFCHTK (UniProt Q6UXT9) | -0.057 | 0.0683 |  | 
ZWILCH_Q9H900_7_LNCAAEDFYSR (UniProt Q9H900) |  |  | 0.017 | 0.0199
ACAP2_Q15057_53_AFCVANK (UniProt Q15057) | 0.087 | 0.0818 |  | 
ZYX_Q15942_444_CNTCGEPITDR (UniProt Q15942) |  |  | 0.132 | 0.248
ZW10_O43264_568_LAPILCDGTATFVDLVPGFR (UniProt O43264) |  |  | -0.16 | -0.0756
ZYX_Q15942_504_CSVCSEPIMPEPGR (UniProt Q15942) |  |  | -0.07 | -0.161
ACADVL_P49748_156_ELGAFGLQVPSELGGVGLCNTQYAR (UniProt P49748) | 0.0464 | -0.0491 |  | 
ZNRD1_Q9P1U0_90_CGHEGMAYHTR (UniProt Q9P1U0) |  |  | -0.182 | -0.412
ZYX_Q15942_537+540_CEDCGKPLSIEADDNGCFPLDGHVLCR (UniProt Q15942) |  |  | 0.194 | -0.104
ACBD6_Q9BR61_80_VGNCNTPKPSFFDFEGK (UniProt Q9BR61) | -0.201 | -0.0535 |  | 
ACACA_Q13085_1769_VSALNSVHCEHVEDEGESR (UniProt Q13085) | 0.042 | -0.0311 |  | 
ACACA_Q13085_1470_TDCNHIFLNFVPTVIMDPSK (UniProt Q13085) | 0.156 | -0.0283 |  | 
AAAS_Q9NRG9_335_CQTGCWSPDGSR (UniProt Q9NRG9) | 0.605 | -0.129 |  | 
ACBD3_Q9H3P7_129_QVLMGPYNPDTCPEVGFFDVLGNDR (UniProt Q9H3P7) | -0.0188 | -0.116 |  | 
ACAT2_Q9BWD1_148+158_IGEMPLTDSILCDGLTDAFHNCHMGITAENVAK (UniProt Q9BWD1) | -0.0352 | -0.405 |  | 
ACLY_P53396_845_KPASFMTSICDER (UniProt P53396) | 0.294 | 0.0276 |  | 
